Laboratory results taken from patent publication EP2970419B1.
These are yes or no findings as the source states them, for the method shown. In cells and extracts the contact can be indirect. Some results given as binding are weak or reduced against the parent protein; the word gives no strength.

By UniProt entry, the sequences of proteins in these tests, tags left out.
UniProt P05198: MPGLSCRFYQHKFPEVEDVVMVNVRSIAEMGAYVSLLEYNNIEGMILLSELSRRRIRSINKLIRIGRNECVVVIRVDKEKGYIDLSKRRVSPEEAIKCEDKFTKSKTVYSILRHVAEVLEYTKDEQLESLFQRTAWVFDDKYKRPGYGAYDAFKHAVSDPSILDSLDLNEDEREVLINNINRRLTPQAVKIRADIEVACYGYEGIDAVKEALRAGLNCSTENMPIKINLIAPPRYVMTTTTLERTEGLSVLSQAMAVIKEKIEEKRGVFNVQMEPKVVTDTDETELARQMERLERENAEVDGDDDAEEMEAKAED
UniProt O15105: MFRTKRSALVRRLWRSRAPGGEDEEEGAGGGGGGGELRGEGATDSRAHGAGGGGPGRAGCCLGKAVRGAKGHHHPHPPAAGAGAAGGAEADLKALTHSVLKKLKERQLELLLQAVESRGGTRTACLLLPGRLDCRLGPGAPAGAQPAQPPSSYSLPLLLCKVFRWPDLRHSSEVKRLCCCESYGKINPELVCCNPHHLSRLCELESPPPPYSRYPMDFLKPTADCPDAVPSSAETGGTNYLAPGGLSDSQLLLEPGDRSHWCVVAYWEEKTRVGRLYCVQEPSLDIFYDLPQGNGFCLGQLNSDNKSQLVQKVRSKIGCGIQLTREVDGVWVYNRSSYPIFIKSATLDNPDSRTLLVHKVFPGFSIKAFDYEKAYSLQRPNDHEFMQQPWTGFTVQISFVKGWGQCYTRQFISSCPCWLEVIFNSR

Target: eukaryotic initiation factor 2 alpha (human) (UniProt P05198)
Test: co-immunoprecipitation with anti-SMAD7 antibody from whole cell extracts (HCT-116, DLD-1, primary colorectal cancer cells), Western blot with anti-EiF2α

binding: binds
Substance: SMAD7 (endogenous, human colorectal cancer cells) (from UniProt O15105 1-426)
